Consider 17 targets from the supplement of paper PMC10849652.

The chains behind the UniProt entries cited, without tags or fusion partners. Where a name states a change or a piece, a line headed by the entry shows the natural chain unless it says otherwise.
UniProt O14678: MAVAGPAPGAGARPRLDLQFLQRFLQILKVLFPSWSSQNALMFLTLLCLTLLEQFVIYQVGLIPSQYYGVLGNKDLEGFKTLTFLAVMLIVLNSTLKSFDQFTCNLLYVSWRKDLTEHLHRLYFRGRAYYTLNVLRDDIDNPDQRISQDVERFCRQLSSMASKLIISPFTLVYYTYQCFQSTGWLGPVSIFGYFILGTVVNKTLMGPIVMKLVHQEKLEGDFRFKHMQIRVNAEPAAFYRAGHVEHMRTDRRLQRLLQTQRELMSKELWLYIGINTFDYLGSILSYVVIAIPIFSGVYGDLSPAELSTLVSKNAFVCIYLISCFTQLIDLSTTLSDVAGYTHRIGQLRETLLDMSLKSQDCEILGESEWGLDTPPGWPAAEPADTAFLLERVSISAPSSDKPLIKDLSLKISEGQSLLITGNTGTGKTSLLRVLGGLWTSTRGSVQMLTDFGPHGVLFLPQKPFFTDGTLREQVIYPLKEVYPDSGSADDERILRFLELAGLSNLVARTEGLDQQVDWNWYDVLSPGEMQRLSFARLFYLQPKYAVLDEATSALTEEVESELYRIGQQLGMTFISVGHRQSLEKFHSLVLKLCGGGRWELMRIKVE
UniProt O95870: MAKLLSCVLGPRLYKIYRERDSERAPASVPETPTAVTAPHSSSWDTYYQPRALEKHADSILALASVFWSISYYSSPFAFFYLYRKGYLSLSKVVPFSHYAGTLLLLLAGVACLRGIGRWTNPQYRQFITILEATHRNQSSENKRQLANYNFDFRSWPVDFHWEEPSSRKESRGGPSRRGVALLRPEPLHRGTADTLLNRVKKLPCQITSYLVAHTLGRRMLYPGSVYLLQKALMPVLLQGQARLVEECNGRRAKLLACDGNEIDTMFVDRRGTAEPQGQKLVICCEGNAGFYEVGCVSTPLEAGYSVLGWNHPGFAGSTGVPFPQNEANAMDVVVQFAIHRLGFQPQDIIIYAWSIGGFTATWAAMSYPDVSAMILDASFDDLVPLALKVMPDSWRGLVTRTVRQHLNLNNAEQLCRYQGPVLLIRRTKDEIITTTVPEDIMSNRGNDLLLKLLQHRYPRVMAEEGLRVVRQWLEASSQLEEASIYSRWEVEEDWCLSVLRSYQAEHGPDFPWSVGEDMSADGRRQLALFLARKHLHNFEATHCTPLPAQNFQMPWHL
UniProt O95573: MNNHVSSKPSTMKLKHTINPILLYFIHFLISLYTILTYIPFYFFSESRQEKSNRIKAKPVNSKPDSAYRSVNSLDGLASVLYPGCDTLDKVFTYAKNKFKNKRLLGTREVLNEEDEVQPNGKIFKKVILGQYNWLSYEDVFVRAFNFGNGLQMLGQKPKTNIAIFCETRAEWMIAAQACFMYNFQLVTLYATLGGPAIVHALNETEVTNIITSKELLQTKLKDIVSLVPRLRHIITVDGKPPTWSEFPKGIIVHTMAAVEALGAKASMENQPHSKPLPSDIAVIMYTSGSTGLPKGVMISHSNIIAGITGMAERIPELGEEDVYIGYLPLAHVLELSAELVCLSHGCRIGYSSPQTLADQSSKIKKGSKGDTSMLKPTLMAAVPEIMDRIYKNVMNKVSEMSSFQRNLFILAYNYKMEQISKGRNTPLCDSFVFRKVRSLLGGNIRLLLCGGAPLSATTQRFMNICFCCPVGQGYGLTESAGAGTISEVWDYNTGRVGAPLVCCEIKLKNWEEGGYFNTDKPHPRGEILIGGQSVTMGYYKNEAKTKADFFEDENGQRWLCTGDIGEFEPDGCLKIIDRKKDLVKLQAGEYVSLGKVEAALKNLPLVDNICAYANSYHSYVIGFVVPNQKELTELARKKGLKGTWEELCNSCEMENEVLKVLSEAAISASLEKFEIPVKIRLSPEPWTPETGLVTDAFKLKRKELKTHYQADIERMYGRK
UniProt P00519, whole entry, looked up: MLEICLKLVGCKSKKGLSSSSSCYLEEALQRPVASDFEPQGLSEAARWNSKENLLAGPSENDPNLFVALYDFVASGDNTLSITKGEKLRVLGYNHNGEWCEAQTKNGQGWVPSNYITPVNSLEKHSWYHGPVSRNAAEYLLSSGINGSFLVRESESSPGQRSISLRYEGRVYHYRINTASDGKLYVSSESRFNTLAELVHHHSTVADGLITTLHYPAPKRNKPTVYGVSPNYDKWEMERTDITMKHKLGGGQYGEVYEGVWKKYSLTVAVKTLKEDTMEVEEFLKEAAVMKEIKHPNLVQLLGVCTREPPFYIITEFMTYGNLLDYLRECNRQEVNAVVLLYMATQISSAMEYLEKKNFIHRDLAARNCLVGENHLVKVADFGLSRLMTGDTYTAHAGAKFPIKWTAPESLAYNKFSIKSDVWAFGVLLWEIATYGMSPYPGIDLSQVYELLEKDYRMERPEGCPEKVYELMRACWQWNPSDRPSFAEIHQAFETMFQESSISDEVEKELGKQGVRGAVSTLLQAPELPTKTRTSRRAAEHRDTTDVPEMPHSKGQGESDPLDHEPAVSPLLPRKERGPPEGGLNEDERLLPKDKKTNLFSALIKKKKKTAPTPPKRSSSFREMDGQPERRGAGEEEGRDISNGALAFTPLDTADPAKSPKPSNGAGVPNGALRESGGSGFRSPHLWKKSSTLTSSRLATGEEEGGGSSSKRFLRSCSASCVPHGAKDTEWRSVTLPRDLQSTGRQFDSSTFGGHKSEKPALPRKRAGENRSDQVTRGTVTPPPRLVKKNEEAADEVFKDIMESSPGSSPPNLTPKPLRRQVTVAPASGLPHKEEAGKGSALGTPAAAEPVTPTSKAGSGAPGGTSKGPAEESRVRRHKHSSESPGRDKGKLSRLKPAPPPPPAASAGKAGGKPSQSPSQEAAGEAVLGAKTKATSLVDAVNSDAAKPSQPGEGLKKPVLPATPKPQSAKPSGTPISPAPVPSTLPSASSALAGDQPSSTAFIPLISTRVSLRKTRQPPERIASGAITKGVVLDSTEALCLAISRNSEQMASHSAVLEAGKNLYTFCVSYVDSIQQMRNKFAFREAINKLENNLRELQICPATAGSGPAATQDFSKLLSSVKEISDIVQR
UniProt Q53FZ2: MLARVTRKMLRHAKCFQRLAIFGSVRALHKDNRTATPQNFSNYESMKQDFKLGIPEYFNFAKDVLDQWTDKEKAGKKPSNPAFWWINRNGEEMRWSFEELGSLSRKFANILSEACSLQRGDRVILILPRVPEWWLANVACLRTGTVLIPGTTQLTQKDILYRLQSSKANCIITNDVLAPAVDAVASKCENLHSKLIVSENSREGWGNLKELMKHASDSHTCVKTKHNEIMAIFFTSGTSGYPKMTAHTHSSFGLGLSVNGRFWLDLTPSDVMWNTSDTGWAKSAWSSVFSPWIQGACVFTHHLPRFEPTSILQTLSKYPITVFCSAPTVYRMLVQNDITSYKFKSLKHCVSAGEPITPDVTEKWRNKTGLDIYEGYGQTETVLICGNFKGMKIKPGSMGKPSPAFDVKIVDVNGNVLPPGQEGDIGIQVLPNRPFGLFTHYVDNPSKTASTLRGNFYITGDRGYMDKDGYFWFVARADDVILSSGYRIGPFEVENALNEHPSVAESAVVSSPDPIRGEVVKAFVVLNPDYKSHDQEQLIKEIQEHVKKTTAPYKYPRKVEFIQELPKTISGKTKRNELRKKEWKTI
UniProt Q9NUB1: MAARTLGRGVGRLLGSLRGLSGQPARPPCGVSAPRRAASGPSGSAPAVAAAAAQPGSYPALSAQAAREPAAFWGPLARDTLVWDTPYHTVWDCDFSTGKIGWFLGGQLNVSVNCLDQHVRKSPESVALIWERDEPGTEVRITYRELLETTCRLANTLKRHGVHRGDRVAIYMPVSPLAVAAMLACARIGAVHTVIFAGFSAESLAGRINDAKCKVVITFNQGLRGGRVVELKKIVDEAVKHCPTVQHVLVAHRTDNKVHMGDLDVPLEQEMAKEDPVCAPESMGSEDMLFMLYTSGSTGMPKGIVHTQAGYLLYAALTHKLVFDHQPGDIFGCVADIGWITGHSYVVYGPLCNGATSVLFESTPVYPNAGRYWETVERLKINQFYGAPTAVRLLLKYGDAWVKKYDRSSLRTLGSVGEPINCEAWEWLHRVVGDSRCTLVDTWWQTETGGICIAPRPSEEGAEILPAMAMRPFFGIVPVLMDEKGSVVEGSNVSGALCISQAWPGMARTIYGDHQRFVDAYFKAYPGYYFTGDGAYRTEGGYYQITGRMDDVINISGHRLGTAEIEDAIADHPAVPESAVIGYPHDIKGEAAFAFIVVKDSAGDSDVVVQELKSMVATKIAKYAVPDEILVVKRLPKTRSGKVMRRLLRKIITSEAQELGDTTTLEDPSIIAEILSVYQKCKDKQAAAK
UniProt O15254: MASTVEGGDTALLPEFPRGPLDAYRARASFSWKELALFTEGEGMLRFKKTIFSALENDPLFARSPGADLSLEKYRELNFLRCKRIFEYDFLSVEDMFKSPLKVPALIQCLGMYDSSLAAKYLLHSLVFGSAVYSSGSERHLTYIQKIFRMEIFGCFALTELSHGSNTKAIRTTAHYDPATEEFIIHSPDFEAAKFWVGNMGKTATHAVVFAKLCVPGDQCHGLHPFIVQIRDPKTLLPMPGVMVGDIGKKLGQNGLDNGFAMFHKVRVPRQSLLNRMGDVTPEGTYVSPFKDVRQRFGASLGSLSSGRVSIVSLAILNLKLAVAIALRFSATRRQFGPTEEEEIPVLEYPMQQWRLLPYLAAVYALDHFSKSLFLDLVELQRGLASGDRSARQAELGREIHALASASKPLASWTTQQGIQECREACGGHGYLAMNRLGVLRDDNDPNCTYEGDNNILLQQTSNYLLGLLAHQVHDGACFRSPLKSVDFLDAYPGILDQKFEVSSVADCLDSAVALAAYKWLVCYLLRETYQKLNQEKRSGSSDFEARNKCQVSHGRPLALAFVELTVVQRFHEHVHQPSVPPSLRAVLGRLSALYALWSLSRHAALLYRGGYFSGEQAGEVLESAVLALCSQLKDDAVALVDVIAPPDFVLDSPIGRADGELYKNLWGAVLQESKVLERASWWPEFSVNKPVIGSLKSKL
UniProt O15440: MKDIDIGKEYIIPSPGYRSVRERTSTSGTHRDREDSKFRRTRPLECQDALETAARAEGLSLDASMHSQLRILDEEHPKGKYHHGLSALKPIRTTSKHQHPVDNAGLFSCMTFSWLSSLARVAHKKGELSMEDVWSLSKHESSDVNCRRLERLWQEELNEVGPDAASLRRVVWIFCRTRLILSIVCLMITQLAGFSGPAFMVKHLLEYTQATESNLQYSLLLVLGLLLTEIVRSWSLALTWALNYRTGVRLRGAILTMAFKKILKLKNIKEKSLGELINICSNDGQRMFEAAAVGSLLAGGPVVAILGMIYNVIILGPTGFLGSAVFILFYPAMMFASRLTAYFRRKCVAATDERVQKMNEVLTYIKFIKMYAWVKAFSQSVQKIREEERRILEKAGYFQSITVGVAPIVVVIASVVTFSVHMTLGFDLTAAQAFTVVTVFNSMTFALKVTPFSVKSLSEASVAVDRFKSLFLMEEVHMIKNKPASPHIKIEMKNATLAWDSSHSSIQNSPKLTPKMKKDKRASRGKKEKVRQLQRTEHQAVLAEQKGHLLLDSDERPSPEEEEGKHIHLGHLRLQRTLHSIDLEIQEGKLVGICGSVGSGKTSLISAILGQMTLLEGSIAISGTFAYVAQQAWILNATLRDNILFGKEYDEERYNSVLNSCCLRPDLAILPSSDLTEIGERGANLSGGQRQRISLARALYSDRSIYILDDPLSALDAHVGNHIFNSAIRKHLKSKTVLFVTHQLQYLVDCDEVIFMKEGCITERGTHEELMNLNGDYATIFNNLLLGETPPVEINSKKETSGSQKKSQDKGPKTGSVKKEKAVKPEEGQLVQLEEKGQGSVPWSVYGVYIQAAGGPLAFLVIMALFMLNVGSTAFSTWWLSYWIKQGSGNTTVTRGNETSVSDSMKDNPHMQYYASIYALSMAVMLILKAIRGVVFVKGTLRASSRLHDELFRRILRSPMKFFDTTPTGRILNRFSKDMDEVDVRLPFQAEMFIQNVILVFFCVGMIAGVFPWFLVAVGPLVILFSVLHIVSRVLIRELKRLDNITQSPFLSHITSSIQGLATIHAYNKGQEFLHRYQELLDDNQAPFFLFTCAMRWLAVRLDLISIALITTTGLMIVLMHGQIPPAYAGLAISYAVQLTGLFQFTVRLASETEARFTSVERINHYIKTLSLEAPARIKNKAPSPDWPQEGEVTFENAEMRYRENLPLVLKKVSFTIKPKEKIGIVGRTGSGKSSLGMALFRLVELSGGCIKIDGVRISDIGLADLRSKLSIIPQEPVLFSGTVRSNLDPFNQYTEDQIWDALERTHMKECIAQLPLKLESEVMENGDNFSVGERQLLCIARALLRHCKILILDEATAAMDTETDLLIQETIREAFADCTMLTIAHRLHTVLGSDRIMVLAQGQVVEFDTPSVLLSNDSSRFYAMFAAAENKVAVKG

Common to all, as to assay: log2 fold change, soluble protein after heating vs DMSO (PISA); higher = thermal stabilisation; K562 cells, 10 uM, 30 min; active = over 0.2 and 3.5 SD of the protein, either way, in both replicates (recomputed)
Compound in assay [1]: CC[C@@H]1C(=O)N(C)c2cnc(Nc3ccc(C(=O)NC4CCN(C)CC4)cc3OC)nc2N1C1CCCC1
The method in brief:
(§1)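 Aliquots of K562 cells (2×10^6 cells/mL) treated with 10 μM compound for 30 min were heated for 3 min over 48°C-58°C. After pooling and extraction in PBS with 0.5% NP-40 at 4°C, soluble protein from a 21,000xg, 90 min spin was quantified by TMTpro 16plex LC-MS/MS with channel sums equalised. Thermal stability is expressed against control samples, from duplicates, as a log2 fold change.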

Compound in a further assay: CC[C@@H]1C(=O)N(C)c2cnc(Nc3ccc(C(=O)N[C@H]4CC[C@H](N5CCN(CC6CC6)CC5)CC4)cc3OC)nc2N1C(C)C [volasertib]
In short, it runs like this:
as §1

Compound in assay [2]: CC[C@H](C)N1C=C(C2=C(C=C(C=C21)C3=CN=C(C=C3)N4CCNCC4)C(=O)NCC5=C(C=C(NC5=O)C)C)C
The method in brief: as §1

Compound in the next assay: CC[C@H](C)[C@@H](C(=O)N[C@@H]([C@@H](C)O)C(=O)N[C@@H](CC(C)C)C(=O)[C@]1(CO1)C)NC(=O)[C@H]([C@@H](C)CC)N(C)C(=O)C [epoxomicin]
In short, it runs like this: as §1

Compound in assay [3]: CCn1c(C(=O)N(C2CC2)C2CC2)cc2c3c(ncn3C)c(Nc3cc(C)n(C)n3)nc21
In short, it runs like this: as §1

Compound in assay [4]: CN(C)CC(=O)Nc1ccc2[nH]c(=O)c3ccccc3c2c1
In short, it runs like this: as §1

Compound in another assay: CN(CCOC1=CC=C(C=C1)C[C@H]2C(=O)NC(=O)S2)C3=CC=CC=N3 (racemic) [rosiglitazone]
The method in brief: as §1

Compound in assay [5]: CCn1cc(-c2ccnc3[nH]c(-c4cccc(CN(C)C)c4)cc23)c(-c2ccc(NC(=O)N(C)C)cc2)n1
In short, it runs like this: as §1

Compound in assay [6]: CN1C2=C(C3=C1C(=O)N(N=C3)CC4=CC(=CC=C4)N)SC(=C2)S(=O)C
The method in brief:
as §1

Compound in assay [7]: CN1CCC(CNc2ccc3ncc(-c4cccc(OC(F)(F)F)c4)n3n2)CC1
The method in brief: as §1

The list shows a part of the results.

In the case of ABCD4 (UniProt O14678), the log2 fold change is inactive: 0.033 in assay [1]; inactive: 0.102 with volasertib; inactive: -0.224 in [2]; inactive: 0.205 with epoxomicin; inactive: 0.133 in assay [3]; inactive: 0.098 in assay [4]. Moreover, the log2 fold change with rosiglitazone is inactive: -0.099.
As to ABHD17A isoform 2 (UniProt Q96GS6), the log2 fold change in assay [1] was inactive: -0.072; in the assay with volasertib, inactive: -0.172; in assay [2] it was inactive: -0.084; in the assay with epoxomicin, inactive: -0.057; in [5] it was inactive: -0.17; in assay [4], inactive: -0.067. The log2 fold change in [6] is inactive: -0.015; in [7] it was active: -0.377.
Take ADAM9 (UniProt Q13443): the log2 fold change in [1] is inactive: -0.009; with volasertib, inactive: -0.025; in assay [2] it was inactive: -0.06; with epoxomicin it was inactive: 0.017; in [3], inactive: 0.012; in assay [5], inactive: 0.01. Further, the log2 fold change in assay [4] is inactive: -0.02; in the assay with rosiglitazone, inactive: -0.047; in [6], inactive: -0.031; in assay [7] it was inactive: -0.076.
For ACAA2 (UniProt P42765), the log2 fold change was inactive: 0.003 in [1]; inactive: 0.045 with volasertib; inactive: -0.027 in [2]; inactive: 0.026 in the assay with epoxomicin; inactive: -0.015 in assay [3]; inactive: -0.049 in assay [5]. In addition, the log2 fold change in [4] is inactive: -0.026; in the assay with rosiglitazone it was inactive: -0.009; in assay [6], inactive: 0.01; in [7], inactive: 0.047.
With ABHD16A (UniProt O95870), the log2 fold change in [1] was inactive: 0.134; in the assay with volasertib, inactive: 0.079; in assay [2], inactive: -0.01; with epoxomicin, inactive: -0.008; in [5], inactive: -0.09; in [4], inactive: -0.018. The log2 fold change in assay [6] is inactive: -0.076; in assay [7], inactive: 0.283.
With ADAM17 (UniProt P78536), the log2 fold change in [1] was inactive: 0.033; in the assay with volasertib, inactive: -0.002; in [2], inactive: 0.051; in the assay with epoxomicin, inactive: -0.004; in [3], inactive: 0.006; in assay [5] it was inactive: 0.039. The log2 fold change was inactive: -0.041 in [4], inactive: -0.006 with rosiglitazone, inactive: 0.015 in assay [6] and inactive: 0.113 in assay [7].
With ACSL3 (UniProt O95573), the log2 fold change in [1] was inactive: -0.062; in the assay with volasertib it was active: -0.23; in assay [2], inactive: 0.022; in the assay with epoxomicin, inactive: 0.048; in [5], inactive: -0.042; in assay [4] it was inactive: 0.024. Further, the log2 fold change with rosiglitazone is active: 0.642; in [6] it was inactive: -0.036; in assay [7], inactive: -0.1.
With ADAL (UniProt Q6DHV7), the log2 fold change in [1] is inactive: 0.072; with volasertib it was inactive: 0.037; in assay [2], inactive: 0.032; with epoxomicin it was inactive: 0.004; in assay [3], inactive: 0.001; in assay [5] it was inactive: -0.011. For the same target, the log2 fold change was inactive: -0.078 in assay [4], inactive: 0.006 with rosiglitazone, inactive: -0.083 in [6] and inactive: -0.025 in assay [7].
On to ACTR1B (UniProt P42025), for which the log2 fold change is inactive: 0.081 in assay [1]; inactive: 0.048 with volasertib; inactive: 0.01 in assay [2]; inactive: -0.008 with epoxomicin; active: -0.581 in assay [5]; inactive: 0.021 in assay [4]. In addition, the log2 fold change in [6] was inactive: -0.089; in assay [7], inactive: 0.306.
For the target ABL1 isoform 2 (UniProt P00519), the log2 fold change in assay [1] is inactive: 0.037; with volasertib, inactive: -0.173; in the assay with epoxomicin it was inactive: 0.003; in [3], inactive: 0.012; in [5], inactive: 0.073; in [4], inactive: 0.066. Besides, the results for the log2 fold change (in the assay with rosiglitazone; in [6]; in assay [7]) were inactive: 0.041, inactive: 0.064 and inactive: -0.035, respectively.
As for ACSM3 (UniProt Q53FZ2), the log2 fold change was inactive: 0.021 in assay [1]; inactive: -0.092 with volasertib; inactive: 0.062 in assay [2]; inactive: 0.146 in the assay with epoxomicin; inactive: -0.02 in [5]; inactive: 0.154 in assay [4]. Also, the results for the log2 fold change in assay [6] and in assay [7] were inactive: -0.099 and inactive: -0.145, respectively.
For ACSS1 (UniProt Q9NUB1), the log2 fold change in assay [1] was inactive: -0.064; with volasertib, inactive: -0.062; in assay [2], inactive: 0.074; in assay [3], inactive: -0.078; in [5], inactive: -0.042; in [4], inactive: 0.033. Moreover, the log2 fold change with rosiglitazone is inactive: -0.027; in [6], inactive: -0.081; in assay [7], inactive: 0.092.
Regarding AAR2 (UniProt Q9Y312), the log2 fold change was inactive: -0.032 in assay [1]; inactive: -0.016 with volasertib; inactive: -0.03 in assay [2]; inactive: 0.037 in the assay with epoxomicin; inactive: 0.106 in assay [5]; inactive: -0.001 in assay [4]. For the same target, the log2 fold change in assay [6] is inactive: -0.087; in [7] it was inactive: -0.096.
Turning to ACP2 (UniProt P11117), the log2 fold change in assay [1] was inactive: -0.156; in the assay with volasertib it was inactive: -0.151; in assay [2], inactive: -0.068; with epoxomicin, inactive: 0.019; in assay [5], inactive: -0.02; in assay [4], inactive: -0.029. The log2 fold change in assay [6] is inactive: 0.013; in assay [7], inactive: -0.14.
Turning to ACOX3 (UniProt O15254), the log2 fold change in [1] was inactive: -0.346; with volasertib, inactive: 0.028; in assay [2] it was inactive: -0.069; with epoxomicin, inactive: -0.113; in [4], inactive: -0.129.
For the target ABCC5 (UniProt O15440), the log2 fold change is inactive: -0.075 in assay [1]; inactive: 0.027 with volasertib; inactive: 0.023 in [2]; inactive: -0.028 with epoxomicin; inactive: -0.031 in assay [5]; inactive: -0.069 in assay [4]. The log2 fold change in [6] is inactive: 0.028; in assay [7], inactive: 0.075.
On to ACSF3 (UniProt Q4G176), for which the log2 fold change in [1] is inactive: -0.014; in the assay with volasertib, inactive: -0.093; in assay [2] it was inactive: 0.039; with epoxomicin it was inactive: 0.152; in [5], inactive: -0.17; in [4] it was inactive: 0.008. Moreover, the log2 fold change is inactive: 0.016 in assay [6] and inactive: -0.116 in [7].
